Reference: patent US20050048512A1 (published 2005)
“And” between values parts separate entries of the source, which are not always exact repeats. Equal entries are not always repeated.

T1: CD20 on Raji or Daudi cells (UniProt P11836 1-297, limits assumed)
T1 construct: whole, on cells
T1 sequence (looked up): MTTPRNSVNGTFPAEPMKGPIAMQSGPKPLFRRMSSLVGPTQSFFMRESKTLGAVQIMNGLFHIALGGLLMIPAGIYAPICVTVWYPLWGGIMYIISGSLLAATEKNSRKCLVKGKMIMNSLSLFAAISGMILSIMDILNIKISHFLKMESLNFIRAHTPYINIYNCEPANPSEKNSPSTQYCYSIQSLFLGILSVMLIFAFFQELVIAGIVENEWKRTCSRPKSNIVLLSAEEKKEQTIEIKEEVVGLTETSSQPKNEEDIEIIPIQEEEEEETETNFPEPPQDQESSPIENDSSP


Columns and labels:
[1] = target: T1, CD20 on Raji or Daudi cells; assay: phage clone on Raji or Daudi cells with or without 1 mg/mL Rituxan
CD28 [2] = target: T2, CD28 (UniProt P10747 19-152, limits assumed); assay: ELISA, 10 ng CD28 per well, serial dilutions of protein, anti-HA-HRP detection
T2 construct: Purified CD28 immobilized by NHS/EDC coupling (Biacore) or hydrophobic adsorption (ELISA); also called target protein CD28

CD28 on monkey PBMC = CD28 on monkey PBMC (monkey (cynomolgus), UniProt Q0PDN3 19-220); assay: cell-based or functional assay
CD28 on human PBMC = CD28 on human PBMC (human, UniProt P10747 19-220); assay: cell-based or functional assay
CD28 [3] = target: T2, CD28; assay: Biacore, CD28 on CM5 chip, 0.5 and 5 uM protein in flow

Binder | binding result [1] | ELISA (column head; quantity not named) (CD28 [2]) | IC50, PBMC assay on monkey cells (3H thymidine incorporation) (CD28 on monkey PBMC) [µM] | IC50, PBMC assay on human cells (3H thymidine incorporation) (CD28 on human PBMC) | Kd (CD28 [3]) [µM]
CRSGEFKCHGTRPCVPQRWVCDGDDDCVDGSDEKSCETPARR (designed binder) [CD20 binding sequence 6 (first listed)] | binds | – | – | – | –
CD28-A7 (designed binder, LDL receptor A-domain dimer; also called CD28 7; CD28 dimer clone 7) CGPGRFQCESGQCIPATWVCDGENDCVDDSDEKSCATTAPTCGSGQFRCSNGNCLPLRLGCDGVDDCGDSSDEPLDPCAATVRT | – | 1.2e-06 | 0.002 | 2 nM and 14 ng/ml | 0.11
